Values from PubChem BioAssay AID1259424 (University of Nebraska Medical Center, 2018).
Purpose: 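Rank knockdowns across the genome by resemblance to the KSR1 depletion profile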 (primary screen). System: human HCT116 colon cancer cells. Reagents: siRNA pool against human genes, 50 nM. Read-out: 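Log2 levels of six mRNAs (branched-DNA multiplex), adjusted by two reference genes and the non-targeting median, then scored against the average KSR1 knockdown pattern as Pearson r and euclidean distance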. Reading the numbers: mean correlation with KSR1 profile and KSR1 correlation: higher = expression change more like KSR1 knockdown; mean distance from KSR1 profile: higher = expression change less like KSR1 knockdown.
The whole screen tested about 14,000 reagents; below is an unselected part. 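Higher correlation or smaller distance means closer resemblance to KSR1 loss; control wells, including KSR1 knockdowns, recur on many plates.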 Not stated in the record: the time to read-out.

mean correlation with KSR1 profile | mean distance from KSR1 profile | KSR1 correlation, replicate 1 | KSR1 correlation, replicate 2 | KSR1 correlation, replicate 3 | gene knocked down
-0.275 | 2.5 | -0.205 | -0.379 | -0.25 | PATJ
-0.46 | 1.87 | -0.445 | -0.373 | -0.525 | TUB
-0.251 | 4.66 | -0.179 | -0.178 | -0.488 | ZNF469
-0.435 | 2.17 | -0.496 | -0.411 | -0.44 | COPS2
0.336 | 1.35 | 0.833 | -0.143 | 0.0601 | BPTF
0.41 | 4.63 | 0.424 | 0.517 | 0.262 | PSMB2
-0.62 | 3.21 | -0.435 | -0.682 | -0.588 | SPATS2L
0.00138 | 4.25 | 0.181 | -0.161 | -0.0765 | GNPDA1
-0.367 | 2.61 | -0.411 | -0.268 | -0.507 | ATP13A1
-0.827 | 7.42 | -0.717 | -0.724 | -0.628 | MSL2

Reprinted from the listing (2 entries):
mean correlation with KSR1 profile | mean distance from KSR1 profile | KSR1 correlation, replicate 1 | KSR1 correlation, replicate 2 | KSR1 correlation, replicate 3 | gene knocked down
-0.275 | 2.5 | -0.205 | -0.379 | -0.25 | PATJ
-0.46 | 1.87 | -0.445 | -0.373 | -0.525 | TUB

The list goes on:
mean correlation with KSR1 profile | mean distance from KSR1 profile | KSR1 correlation, replicate 1 | KSR1 correlation, replicate 2 | KSR1 correlation, replicate 3 | gene knocked down
0.0138 | 1.45 | 0.101 | -0.192 | 0.153 | MFN2
-0.4 | 2.09 | -0.396 | -0.432 | -0.636 | ADCY5
-0.162 | 3.58 | -0.0357 | -0.0474 | -0.373 | KCNH4
0.159 | 1.48 | 0.341 | 0.251 | -0.179 | KLF6
0.347 | 2.32 | 0.35 | 0.064 | 0.063 | SLC39A1
-0.158 | 1.83 | -0.36 | -0.259 | -0.114 | GLRB
0.176 | 3.53 | -0.00904 | 0.256 | 0.202 | NMRAL1
0.799 | 1.68 | 0.714 | 0.636 | 0.628 | SLC22A16
0.0592 | 2.66 | 0.0277 | -0.138 | -0.145 | STAU2
0.742 | 1.2 | 0.794 | 0.684 | 0.644 | HTRA1
